Test results published in paper PMC5297702.
These are yes or no findings as the source states them, for the method shown. Binding seen in cells or lysates may run through a third protein. Some binding calls cover weakened binding; strength is not graded here.

The chains behind the UniProt entries cited, without tags or fusion partners.
UniProt Q9ES67: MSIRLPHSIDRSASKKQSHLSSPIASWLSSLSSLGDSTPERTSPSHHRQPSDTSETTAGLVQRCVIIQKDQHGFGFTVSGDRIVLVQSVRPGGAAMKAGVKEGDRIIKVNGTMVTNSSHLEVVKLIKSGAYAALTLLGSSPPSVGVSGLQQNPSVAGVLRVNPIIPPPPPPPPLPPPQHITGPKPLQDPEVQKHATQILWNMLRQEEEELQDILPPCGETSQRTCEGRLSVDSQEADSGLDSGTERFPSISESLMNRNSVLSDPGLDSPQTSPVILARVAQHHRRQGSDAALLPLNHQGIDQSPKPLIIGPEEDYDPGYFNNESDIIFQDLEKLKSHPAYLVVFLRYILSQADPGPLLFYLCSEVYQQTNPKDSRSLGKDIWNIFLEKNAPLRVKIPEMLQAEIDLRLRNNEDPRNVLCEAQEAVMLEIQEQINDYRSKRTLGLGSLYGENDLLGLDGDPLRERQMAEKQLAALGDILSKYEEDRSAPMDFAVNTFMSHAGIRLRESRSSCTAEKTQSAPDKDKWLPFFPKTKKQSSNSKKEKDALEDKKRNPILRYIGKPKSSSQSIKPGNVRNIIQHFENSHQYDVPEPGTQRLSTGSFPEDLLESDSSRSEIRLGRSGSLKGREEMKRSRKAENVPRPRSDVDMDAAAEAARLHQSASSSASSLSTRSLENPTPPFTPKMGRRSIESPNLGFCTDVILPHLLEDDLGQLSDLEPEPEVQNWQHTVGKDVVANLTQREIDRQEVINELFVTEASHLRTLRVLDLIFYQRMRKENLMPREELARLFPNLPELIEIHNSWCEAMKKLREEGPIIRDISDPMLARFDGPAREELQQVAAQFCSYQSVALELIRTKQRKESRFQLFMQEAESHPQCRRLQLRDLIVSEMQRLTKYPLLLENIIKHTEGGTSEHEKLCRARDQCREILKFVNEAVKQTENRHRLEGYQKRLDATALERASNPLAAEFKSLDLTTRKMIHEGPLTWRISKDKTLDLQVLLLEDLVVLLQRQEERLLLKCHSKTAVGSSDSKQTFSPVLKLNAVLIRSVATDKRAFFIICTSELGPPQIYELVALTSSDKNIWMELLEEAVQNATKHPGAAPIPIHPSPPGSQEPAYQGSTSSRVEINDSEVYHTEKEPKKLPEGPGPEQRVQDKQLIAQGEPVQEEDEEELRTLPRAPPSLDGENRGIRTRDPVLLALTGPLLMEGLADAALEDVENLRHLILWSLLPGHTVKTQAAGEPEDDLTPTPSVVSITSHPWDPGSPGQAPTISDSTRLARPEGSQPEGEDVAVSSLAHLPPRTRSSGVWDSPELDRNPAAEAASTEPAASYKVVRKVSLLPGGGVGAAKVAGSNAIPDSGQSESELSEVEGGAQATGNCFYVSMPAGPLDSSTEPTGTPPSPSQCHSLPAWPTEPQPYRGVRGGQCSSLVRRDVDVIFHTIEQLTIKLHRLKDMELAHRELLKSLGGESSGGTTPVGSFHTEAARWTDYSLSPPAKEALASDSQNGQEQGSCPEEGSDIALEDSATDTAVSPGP
UniProt P07825: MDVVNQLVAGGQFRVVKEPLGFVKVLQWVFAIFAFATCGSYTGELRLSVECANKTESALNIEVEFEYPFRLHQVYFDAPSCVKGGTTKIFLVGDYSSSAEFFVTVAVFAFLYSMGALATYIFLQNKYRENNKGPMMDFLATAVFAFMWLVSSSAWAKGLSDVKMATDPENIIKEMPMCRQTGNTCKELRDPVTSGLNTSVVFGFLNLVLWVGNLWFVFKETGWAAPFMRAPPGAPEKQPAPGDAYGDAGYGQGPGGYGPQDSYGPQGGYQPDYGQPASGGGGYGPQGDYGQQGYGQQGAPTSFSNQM

Molecular target: Rho guanine nucleotide exchange factor 11 (ARHGEF11) (rat (endogenous in cerebral cortex)) (UniProt Q9ES67)
Assay: co-IP; lysate of the rat cerebral cortex P2 fraction (150 nM NaCl as printed, 50 mM Tris-HCl pH 7.6, 1% NP-40) incubated overnight with ARHGEF11 (Acris) polyclonal antibodies, protein A agarose; Western blotting for synaptophysin and PSD-95; c-Myc (9E10) antibody as negative control

binding: binds
Substance: synaptophysin (from UniProt P07825 1-307)
